From patent publication US20230103352A1
Results are given in words; binding and its absence hold for the method and conditions named. In cells and extracts the contact can be indirect. Some results given as binding are weak or reduced against the parent protein; the word gives no strength.

Chains of the proteins cited; added tags and fusions are not shown.
UniProt P29351: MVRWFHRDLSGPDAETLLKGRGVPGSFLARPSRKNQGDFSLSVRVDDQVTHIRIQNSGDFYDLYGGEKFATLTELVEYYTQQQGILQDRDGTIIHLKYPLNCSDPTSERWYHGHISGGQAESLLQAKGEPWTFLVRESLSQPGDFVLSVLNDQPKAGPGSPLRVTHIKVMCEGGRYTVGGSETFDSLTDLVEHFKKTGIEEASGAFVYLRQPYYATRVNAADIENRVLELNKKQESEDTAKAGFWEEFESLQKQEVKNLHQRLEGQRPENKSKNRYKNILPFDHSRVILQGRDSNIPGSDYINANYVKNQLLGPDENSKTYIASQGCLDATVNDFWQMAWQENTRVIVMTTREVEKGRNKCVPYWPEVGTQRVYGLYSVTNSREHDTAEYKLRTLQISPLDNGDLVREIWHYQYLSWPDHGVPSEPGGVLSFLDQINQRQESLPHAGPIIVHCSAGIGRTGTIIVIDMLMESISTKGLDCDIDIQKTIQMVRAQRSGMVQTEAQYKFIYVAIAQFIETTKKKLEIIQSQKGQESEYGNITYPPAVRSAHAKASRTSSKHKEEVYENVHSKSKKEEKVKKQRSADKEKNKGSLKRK

Tests used:
Siglec G (mouse) [1] = molecular target: T1, Siglec G (mouse) (UniProt Q80ZE3); experiment: co-immunoprecipitation: Siglec G immunoprecipitated from CD24-/- mouse spleen cells stimulated for 30 minutes with 1 µg/ml CD24Fc, control Fc or PBS, Western blot with anti-SHP-1
T1 sequence (looked up): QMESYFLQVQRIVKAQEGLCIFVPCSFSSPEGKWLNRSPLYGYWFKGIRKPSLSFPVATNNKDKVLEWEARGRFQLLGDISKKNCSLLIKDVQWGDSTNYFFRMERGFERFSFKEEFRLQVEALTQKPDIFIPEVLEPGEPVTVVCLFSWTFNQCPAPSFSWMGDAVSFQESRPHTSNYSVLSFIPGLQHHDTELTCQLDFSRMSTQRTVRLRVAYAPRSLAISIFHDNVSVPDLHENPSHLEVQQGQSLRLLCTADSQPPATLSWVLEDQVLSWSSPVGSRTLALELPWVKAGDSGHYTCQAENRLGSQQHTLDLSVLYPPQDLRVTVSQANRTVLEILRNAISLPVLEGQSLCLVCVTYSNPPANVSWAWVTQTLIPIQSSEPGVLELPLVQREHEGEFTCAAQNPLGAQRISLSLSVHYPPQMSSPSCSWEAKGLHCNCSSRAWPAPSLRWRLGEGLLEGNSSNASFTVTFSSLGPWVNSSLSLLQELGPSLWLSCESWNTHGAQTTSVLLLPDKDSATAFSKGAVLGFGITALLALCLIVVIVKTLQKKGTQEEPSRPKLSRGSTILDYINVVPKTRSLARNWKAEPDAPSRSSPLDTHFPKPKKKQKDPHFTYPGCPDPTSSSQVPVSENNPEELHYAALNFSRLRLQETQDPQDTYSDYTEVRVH

Siglec G (mouse) [2] = molecular target: T1, Siglec G (mouse); experiment: co-immunoprecipitation: Siglec G immunoprecipitated from CD24-/- spleen cells stimulated with 1 µg/ml CD24Fc, probed with anti-SHP-1 (FIG. 5C)
Siglec G (mouse) [3] = molecular target: T1, Siglec G (mouse); experiment: co-immunoprecipitation: Siglec G immunoprecipitated from CD24Fc-stimulated CD24-/- spleen cells, probed with anti-SHP-1

binding (Siglec G (mouse) [1]): binds
binding (Siglec G (mouse) [2]): binds
binding (Siglec G (mouse) [3]): binds
Substance: SHP-1 (from UniProt P29351 1-595) (enzyme)
